Results deposited as PubChem BioAssay AID493246 (Drosophila RNAi Screening Center, 2011)

- Assay: 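Identify essential fly genes by loss of cell viability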 (primary screen)
- System: Drosophila Kc and S2R+ cells
- Reagent: long dsRNA against Drosophila genes
- Detection: 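Cell number per well after knock-down, printed as raw plate values; calls were based on per-plate z-scores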
- Reading the numbers: Kc cell number and S2R+ cell number: higher = more cells remaining
- Rule for the call: 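Counted as a hit if cell number falls by a z-score of at least 3 within its plate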
The deposit covers about 21,000 reagents; this is a random part of those with a known target gene and a result. In the full data, 429 (2%) are marked active. 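Values are raw and not normalised between plates; calls rest on per-plate z-scores that were not deposited.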 The record does not give: the amount of reagent, the time to read-out.

How did the screen score Sym [DRSC12301]?
Kc cell number, rep 1: 1.53e6; Kc cell number, rep 2: 1.65e6; S2R+ cell number, rep 1: 1.20e6; S2R+ cell number, rep 2: 1.30e6; activity call: inactive

What is on record for Snx1 [DRSC00531]?
Kc cell number, rep 1: 1.47e6; Kc cell number, rep 2: 1.45e6; S2R+ cell number, rep 1: 1.11e6; S2R+ cell number, rep 2: 1.28e6; activity call: inactive

Which result is listed for Porin2 [DRSC02584]?
Kc cell number, rep 1: 1.67e6; Kc cell number, rep 2: 1.84e6; S2R+ cell number, rep 1: 1.37e6; S2R+ cell number, rep 2: 1.48e6; activity call: inactive

With CG4860 [DRSC15664], how do the results read?
Kc cell number, rep 1: 1.34e6; Kc cell number, rep 2: 1.41e6; S2R+ cell number, rep 1: 1.08e6; S2R+ cell number, rep 2: 1.17e6; activity call: inactive

With Mur29B [DRSC01018], what does the deposit list?
Kc cell number, rep 1: 1.52e6; Kc cell number, rep 2: 1.57e6; S2R+ cell number, rep 1: 1.01e6; S2R+ cell number, rep 2: 1.14e6; activity call: inactive

For Mur29B [DRSC02376], what was measured?
Kc cell number, rep 1: 1.60e6; Kc cell number, rep 2: 1.61e6; S2R+ cell number, rep 1: 1.21e6; S2R+ cell number, rep 2: 1.37e6; activity call: inactive

With eIF4G2 [DRSC14207], what does the deposit list?
Kc cell number, rep 1: 1.56e6; Kc cell number, rep 2: 1.54e6; S2R+ cell number, rep 1: 1.29e6; S2R+ cell number, rep 2: 1.60e6; activity call: inactive

With CG30384 [DRSC06032], what was measured?
Kc cell number, rep 1: 1.74e6; Kc cell number, rep 2: 1.74e6; S2R+ cell number, rep 1: 1.33e6; S2R+ cell number, rep 2: 1.49e6; activity call: inactive

Which result is listed for Gsc [DRSC00755]?
Kc cell number, rep 1: 1.48e6; Kc cell number, rep 2: 1.56e6; S2R+ cell number, rep 1: 9.69e5; S2R+ cell number, rep 2: 1.13e6; activity call: inactive

What is on record for Jhbp16 [DRSC15039]?
Kc cell number, rep 1: 1.43e6; Kc cell number, rep 2: 1.49e6; S2R+ cell number, rep 1: 9.36e5; S2R+ cell number, rep 2: 9.86e5; activity call: inactive

With otk [DRSC07658], how do the results read?
Kc cell number, rep 1: 1.60e6; Kc cell number, rep 2: 1.70e6; S2R+ cell number, rep 1: 1.36e6; S2R+ cell number, rep 2: 1.52e6; activity call: inactive

What is on record for Grasp65 [DRSC10917]?
Kc cell number, rep 1: 1.38e6; Kc cell number, rep 2: 1.42e6; S2R+ cell number, rep 1: 1.31e6; S2R+ cell number, rep 2: 1.36e6; activity call: inactive

With shop [DRSC20030], how do the results read?
Kc cell number, rep 1: 1.56e6; Kc cell number, rep 2: 1.56e6; S2R+ cell number, rep 1: 1.09e6; S2R+ cell number, rep 2: 1.27e6; activity call: inactive

What is on record for CG5435 [DRSC02860]?
Kc cell number, rep 1: 1.52e6; Kc cell number, rep 2: 1.64e6; S2R+ cell number, rep 1: 1.24e6; S2R+ cell number, rep 2: 1.33e6; activity call: inactive

2 entries from above, set out differently:
{"Gene":"shop","amplicon":"DRSC20030","Kc cell number, rep 1":1.56e6,"Kc cell number, rep 2":1.56e6,"S2R+ cell number, rep 1":1.09e6,"S2R+ cell number, rep 2":1.27e6,"activity call":"inactive"}
{"Gene":"CG5435","amplicon":"DRSC02860","Kc cell number, rep 1":1.52e6,"Kc cell number, rep 2":1.64e6,"S2R+ cell number, rep 1":1.24e6,"S2R+ cell number, rep 2":1.33e6,"activity call":"inactive"}
